# Measured values published in publication PMC12411348.
# Sequences of proteins named here, by UniProt entry; tags and fusion partners are left off.
# UniProt P40337: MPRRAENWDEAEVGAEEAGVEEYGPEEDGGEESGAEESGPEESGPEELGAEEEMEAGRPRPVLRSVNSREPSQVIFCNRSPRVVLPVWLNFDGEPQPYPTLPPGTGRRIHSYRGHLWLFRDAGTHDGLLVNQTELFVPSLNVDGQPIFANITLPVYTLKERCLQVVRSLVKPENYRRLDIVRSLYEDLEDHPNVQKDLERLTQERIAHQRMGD
# UniProt P55036: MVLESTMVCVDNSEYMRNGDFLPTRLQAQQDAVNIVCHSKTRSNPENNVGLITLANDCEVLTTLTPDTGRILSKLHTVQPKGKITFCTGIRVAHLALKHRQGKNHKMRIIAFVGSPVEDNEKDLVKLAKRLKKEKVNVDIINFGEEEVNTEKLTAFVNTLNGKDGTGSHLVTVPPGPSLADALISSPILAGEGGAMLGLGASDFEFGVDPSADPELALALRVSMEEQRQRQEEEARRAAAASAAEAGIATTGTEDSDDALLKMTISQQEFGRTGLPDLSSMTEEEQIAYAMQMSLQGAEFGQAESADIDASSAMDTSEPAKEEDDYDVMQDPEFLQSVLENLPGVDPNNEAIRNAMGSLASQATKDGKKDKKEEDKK
# These are yes or no findings as the source states them, for the method shown. In cells and extracts the contact can be indirect. Some entries that bind do so weakly or less than the wild type.
# Key:
# Flag-pVHL (human) = Flag-pVHL (human) (UniProt P40337); assay: co-IP; transfected HEK293T cells; IP lysis buffer (50 mM Tris–HCl pH 7.5, 150 mM NaCl, 1 mM EDTA, 10% glycerol, 1% Triton X-100), antibody overnight at 4 °C, Protein A/G agarose beads, immunoblot
# [1] = molecular target: GST-pVHL fusion protein (human) (UniProt P40337); assay: pull-down; purified GST-fusion protein on glutathione Sepharose 4B beads incubated with HEK293T cell lysates (transfected or untransfected), overnight at 4 °C, washed with lysis buffer, western blot; only the target purified
substance,measurement,setting,value
endogenous PSMD4 (subunit of the 19S regulatory particle of the 26S proteasome) (from UniProt P55036 1-377),binding,Flag-pVHL (human),binds
same,binding,[1],binds
